These are yes or no findings as the source states them, for the method shown. Some entries that bind do so weakly or less than the wild type.
T1: human recombinant 14-3-3 epsilon (YWHAE) (human), P62258
T1 chain: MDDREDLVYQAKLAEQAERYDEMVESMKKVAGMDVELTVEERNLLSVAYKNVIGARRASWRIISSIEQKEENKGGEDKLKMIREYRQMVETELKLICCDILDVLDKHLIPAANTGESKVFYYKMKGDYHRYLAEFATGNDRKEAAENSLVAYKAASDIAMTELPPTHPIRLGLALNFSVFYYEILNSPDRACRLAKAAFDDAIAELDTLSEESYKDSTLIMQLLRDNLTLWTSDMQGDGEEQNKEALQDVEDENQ

Amino acid sequences for entries named in this document (tags omitted). A change or cut given only in a name is not applied to a line headed by its entry.
UniProt Q8WUU5: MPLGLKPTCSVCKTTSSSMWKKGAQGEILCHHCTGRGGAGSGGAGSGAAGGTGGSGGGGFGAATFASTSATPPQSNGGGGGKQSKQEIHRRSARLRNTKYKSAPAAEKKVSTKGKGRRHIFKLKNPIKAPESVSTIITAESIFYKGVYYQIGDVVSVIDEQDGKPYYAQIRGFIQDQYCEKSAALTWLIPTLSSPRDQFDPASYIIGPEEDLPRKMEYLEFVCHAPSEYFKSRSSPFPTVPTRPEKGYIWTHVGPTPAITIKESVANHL


Assays:
[1] = target: human recombinant 14-3-3 epsilon (YWHAE) (human) (UniProt P62258); test: condition: 400 µM peptide in the syringe, 25 µM 14-3-3ε in the chamber; ITC; PEAQ-ITC, 18 °C, 400 µM peptide in the syringe, 25 µM 14-3-3ε in the reaction chamber; 20 mM HEPES pH 7.0, 150 mM NaCl, 2 mM DTT; both purified
[2] = target: T1, human recombinant 14-3-3 epsilon …; test: crystal structure; 14-3-3ε (13 mg/ml) with the GATAD1 phosphopeptide in 1:2 molar ratio; sitting drop, 19% PEG 3350, 0.35 M NaBr, 0.1 M BisTris-Propane pH 6.5, 20 °C; space group R32, 2 complexes per asymmetric unit; both purified; settings: remark: other sources report otherwise

| Binder | binding [1] | binding [2] |
| --- | --- | --- |
| LRNTKYKDAPAAEKK (peptide, UniProt Q8WUU5 95-109, N-terminus in amine form; C-terminus in amide form) [GATAD1 S102D peptide (soluble, ITC)] | no binding | – |
| LRNTKYKEAPAAEKK (peptide, UniProt Q8WUU5 95-109, N-terminus in amine form; C-terminus in amide form) [GATAD1 S102E peptide (soluble, ITC)] | no binding | – |

Results, then the binder that gave them:

| binding [1] | binding [2] | Binder |
| --- | --- | --- |
| – | binds | human recombinant 14-3-3 epsilon (YWHAE), P62258 1-255 (protein) MDDREDLVYQAKLAEQAERYDEMVESMKKVAGMDVELTVEERNLLSVAYKNVIGARRASWRIISSIEQKEENKGGEDKLKMIREYRQMVETELKLICCDILDVLDKHLIPAANTGESKVFYYKMKGDYHRYLAEFATGNDRKEAAENSLVAYKAASDIAMTELPPTHPIRLGLALNFSVFYYEILNSPDRACRLAKAAFDDAIAELDTLSEESYKDSTLIMQLLRDNLTLWTSDMQGDGEEQNKEALQDVEDENQ |
| no binding | – | LRNTKYKPAPAAEKK (peptide, UniProt Q8WUU5 95-109, N-terminus in amine form; C-terminus in amide form) [GATAD1 S102P peptide (soluble, ITC)] |

— publication PMC11009412, “Pathogenic mutations of human phosphorylation sites affect protein–protein interactions” (Nature Communications, 2024)
